Values from PubChem BioAssay AID1259308 (NCATS, 2017).

- Screen: 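Knock-downs that increase output of a recombinant reporter protein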 (primary screen)
- System: human HEK293 embryonic kidney cells stably expressing firefly luciferase (HEK-CMV-Luc2-Hygro)
- Reagent: single siRNA against human genes, 0.8 pmol siRNA per well
- Duration: 72 h
- Measured: 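Reporter luminescence and viable-cell signal on separate replicate plates, given as percent of non-targeting control and median/MAD z-scores, plus per-cell luciferase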
- Scale: total luciferase, z-score and total luciferase, % of control: higher = more reporter protein produced; luciferase per cell, z-score: higher = more reporter output per viable cell
- Call rule: 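Active when the median/MAD z-score for overall luciferase is greater than 3; a gene was taken forward for validation with new siRNAs if at least two of its three siRNAs passed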
- Meaning of the calls: active = raised luciferase; inactive = no rise
This is a random part of about 59,000 deposited reagents. Over the whole deposit, about 1,510 (2.6%) were called active. 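Calls use total luciferase alone and ignore viability, so some active siRNAs may act by altering cell number.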 The numbers tell different reagents against one gene apart. Further read-outs or replicates are left out here. No sequences are given here.

no.	target	reagent	total luciferase, z-score	total luciferase, % of control	luciferase per cell, z-score	Call
1	HINT1P1 (GeneID 730647)	1	-0.656	68.8	-0.939	inactive
2	HINT1P1 (GeneID 730647)	2	-0.137	79.2	-0.223	inactive
3	HINT1P1 (GeneID 730647)	3	0.4	89.8	0.472	inactive
4	MAJIN (GeneID 283129)	1	1.02	102	1.56	inactive
5	MAJIN (GeneID 283129)	2	-0.3	75.9	0.854	inactive
6	MAJIN (GeneID 283129)	3	-0.695	68.1	-0.622	inactive
7	CIB3 (GeneID 117286)	1	0.0977	83.8	0.2	inactive
8	CIB3 (GeneID 117286)	2	-1.17	58.6	-1.37	inactive
9	CIB3 (GeneID 117286)	3	2.81	138	2.23	inactive
10	AP5S1 (GeneID 55317)	1	-1.11	59.7	-0.195	inactive
11	AP5S1 (GeneID 55317)	2	0.963	101	0.377	inactive
12	AP5S1 (GeneID 55317)	3	-0.639	69.2	-0.755	inactive
13	NRAD1 (GeneID 121838)	1	-0.549	71	-0.269	inactive
14	NRAD1 (GeneID 121838)	2	-1.14	59.1	-0.728	inactive
15	NRAD1 (GeneID 121838)	3	-1.33	55.4	-0.829	inactive
16	HMGN2 (GeneID 3151)	1	0.548	92.8	0.156	inactive
17	HMGN2 (GeneID 3151)	2	0.204	85.9	-0.424	inactive
18	HMGN2 (GeneID 3151)	3	1.79	117	1.38	inactive
19	RUNX1 (GeneID 861)	1	-0.362	74.7	1.26	inactive
20	RUNX1 (GeneID 861)	2	-0.88	64.4	-1.11	inactive
21	RUNX1 (GeneID 861)	3	-2.28	36.5	-2.9	inactive
22	SF3B5 (GeneID 83443)	1	3.85	158	4.44	active
23	SF3B5 (GeneID 83443)	2	1.03	102	2.85	inactive
24	SF3B5 (GeneID 83443)	3	1.38	109	3.25	inactive

Ordered by “total luciferase, % of control” (high to low): some entries from above.
target	reagent	total luciferase, z-score	total luciferase, % of control	luciferase per cell, z-score	Call
SF3B5 (GeneID 83443)	1	3.85	158	4.44	active
SF3B5 (GeneID 83443)	2	1.03	102	2.85	inactive
RUNX1 (GeneID 861)	3	-2.28	36.5	-2.9	inactive
